Experiments:
[1] = target: T1, Beta-glucuronidase (Homo sapiens) (UniProt P08236); experiment: Inhibition of whole human gut bacterial beta-glucuronidase relative to control; conditions: concentration not given here
T1 sequence (whole entry): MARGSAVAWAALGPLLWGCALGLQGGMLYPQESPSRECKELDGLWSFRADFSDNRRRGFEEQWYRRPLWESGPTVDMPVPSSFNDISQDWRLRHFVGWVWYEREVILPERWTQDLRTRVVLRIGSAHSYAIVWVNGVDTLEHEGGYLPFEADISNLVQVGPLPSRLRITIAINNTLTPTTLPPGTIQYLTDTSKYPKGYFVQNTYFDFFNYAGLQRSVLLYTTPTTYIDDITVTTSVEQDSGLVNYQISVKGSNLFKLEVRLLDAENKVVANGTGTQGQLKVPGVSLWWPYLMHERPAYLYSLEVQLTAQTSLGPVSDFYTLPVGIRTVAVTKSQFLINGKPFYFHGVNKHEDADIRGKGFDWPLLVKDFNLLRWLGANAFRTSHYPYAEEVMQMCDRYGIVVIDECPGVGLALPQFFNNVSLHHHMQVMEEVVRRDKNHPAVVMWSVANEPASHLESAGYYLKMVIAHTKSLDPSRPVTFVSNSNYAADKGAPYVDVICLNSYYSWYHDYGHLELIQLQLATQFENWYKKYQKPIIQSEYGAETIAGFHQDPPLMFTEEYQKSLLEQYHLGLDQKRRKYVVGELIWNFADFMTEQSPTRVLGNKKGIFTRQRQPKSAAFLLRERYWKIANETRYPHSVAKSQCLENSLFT

[2] = Inhibition of bacterial beta-glucuronidase using p-nitrophenyl-beta-D-glucuronide as substrate after 1 hr; set-up: species or system Bacteria

inhibition [1]: 7.3%
IC50 [2]: 530 nM
Compound: Clc1ccc2c(c1)C(N1CCNCC1)=Nc1ccccc1O2 [AMOXAPINE]

— ChEMBL document CHEMBL4616590, “Therapeutic significance of β-glucuronidase activity and its inhibitors: A review” (Eur J Med Chem, 2020)
